In assay [1] the target is bacteriophage T5 empty expanded capsid (without pb10) (bacteriophage T5). Kind of assay: native gel or EMSA; purified capsids mixed with various amounts of pb10, NTD, CTD or mutants, 4 °C for 30 min; 1.5% native agarose gel in TAMg buffer (40 mM Tris-HCl, 20 mM acetic acid, 1 mM MgSO4, pH around 8.1), 25 V overnight, Coomassie blue; hexamers 150 nM, proteins 60 to 300 nM; both purified.

The target is the same in assay [2]. In words: cryo-EM structure; icosahedral reconstructions of empty expanded capsids with pb10 (9 Å) and without pb10 (8 Å); pb8 homology model fitted into the hexamer density; both purified.
Assay [3] shares this target. Kind of assay: SPR; expanded capsids incubated with His-tagged pb10 at a molar ratio of 6.8 x 10^-3 pb10 per hexamer, captured on a Ni2+-NTA sensor chip; untagged pb10 injected over them; both purified. In general terms: In SPR one partner is held on a chip, and binding of the other changes the refractive index at the surface.
For assay [4] the target is unchanged. Kind of assay: SPR; expanded capsids incubated with His-tagged pb10 at a 10-fold higher ratio (6.8 x 10^-2 per hexamer), captured on a Ni2+-NTA sensor chip; untagged pb10 injected over them; both purified.
Assay [5] concerns the target bacteriophage T5 DNA-filled heads lacking pb10 (bacteriophage T5). Kind of assay: native gel or EMSA; purified capsids mixed with various amounts of pb10, NTD, CTD or mutants, 4 °C for 30 min; 1.5% native agarose gel in TAMg buffer (40 mM Tris-HCl, 20 mM acetic acid, 1 mM MgSO4, pH around 8.1), 25 V overnight, Coomassie blue; hexamers 150 nM, proteins 60 to 300 nM; both purified.

The target of assay [6] is bacteriophage T5 empty expanded capsid (without pb10) (bacteriophage T5). Kind of assay: condition: only capsids first incubated with His-tagged pb10 at 6.8 × 10^-2 per hexamer (already fully decorated); SPR; expanded capsids incubated with His-tagged pb10 at a 10-fold higher ratio (6.8 x 10^-2 per hexamer), captured on a Ni2+-NTA sensor chip; untagged pb10 injected over them; both purified.

This is an account of results in article PMC5292684, “High affinity anchoring of the decoration protein pb10 onto the bacteriophage T5 capsid” (Scientific Reports, 2017).

No constants are given. Whether binding was seen depends on the method and setting. For part of these data: Binding can be weak; no strength is given. Where a sequence is shown, tags or fusion partners need not be part of it.

B1: pb10 N-terminal domain (NTD), residues 1 to 77 (domain or fragment, UniProt Q6QGD6 1-77)
chain: MIDYSGLRTIFGEKLPESHIFFATVAAHKYVPSYAFLRRELGLSSAHTNRKVWKKFVEAYGKAIPPAPPAPPLTLSK
As to B1, the binding result in assay [1] is recorded as “binds”.

B2: pb10 C-terminal domain (CTD), residues 72 to 164 (domain or fragment, UniProt Q6QGD6 72-164)
chain: PLTLSKDLTASMSVEEGAALTLSVTATGGTGPYTYAWTKDGSPIPDASGATYTKPTAAAEDAGSYKVTVTDSKQVSKDSTTCAVTVNPTVPGG
Regarding B2, in assay [1], the binding entry is “no binding (tested: tenfold molar ratio)”.

B3: decoration protein pb10 of bacteriophage T5, full-length, fused to a C-terminal histidine tag (natural protein, UniProt Q6QGD6 1-164, looked up)
chain: MIDYSGLRTIFGEKLPESHIFFATVAAHKYVPSYAFLRRELGLSSAHTNRKVWKKFVEAYGKAIPPAPPAPPLTLSKDLTASMSVEEGAALTLSVTATGGTGPYTYAWTKDGSPIPDASGATYTKPTAAAEDAGSYKVTVTDSKQVSKDSTTCAVTVNPTVPGG
notes: decoration protein pb10 of bacteriophage T5, 164 amino acids, GenBank AAU05286; Monomer by SEC-MALLS (17 kDa); 18.3 kDa with the His tag; also called pb10-His; His-tagged pb10; source: pET28b expression vector, purified (expression and purification detailed in SI); not shown: His-Tag, C-terminal, kept
On to B3, for which the binding entry in assay [2], in assay [3], in assay [4], in assay [5] and in assay [1] was “binds” in each case.

B4: untagged pb10 (protein, UniProt Q6QGD6 1-164)
chain: B3 chain
For the molecule B4, the binding entry in assay [3] is “binds”; in assay [6], “no binding”.
